In this experiment the target is T1, mCherry-RILPL1 (RILP-like protein 1) (UniProt Q5EBL4).
T1 sequence: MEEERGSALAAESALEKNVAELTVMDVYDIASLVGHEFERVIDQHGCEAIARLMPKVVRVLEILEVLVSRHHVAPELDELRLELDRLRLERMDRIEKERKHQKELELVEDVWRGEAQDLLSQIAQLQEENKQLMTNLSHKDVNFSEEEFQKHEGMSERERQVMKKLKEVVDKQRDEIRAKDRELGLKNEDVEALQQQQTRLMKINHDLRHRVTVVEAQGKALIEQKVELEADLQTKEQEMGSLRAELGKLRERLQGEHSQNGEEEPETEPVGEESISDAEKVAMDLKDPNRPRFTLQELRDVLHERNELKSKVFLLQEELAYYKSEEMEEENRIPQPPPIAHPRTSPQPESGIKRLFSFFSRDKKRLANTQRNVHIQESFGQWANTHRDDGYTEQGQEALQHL
As to the kind of experiment: co-IP; HEK293FT cells transfected with 3xflag-LRRK2 and mCherry-RILPL1 for 24 h, treated or not with LLOME (1 mM, 2 h); lysate (150 mM NaCl, 0.3% Triton X-100) on RFP-Trap magnetic beads, 1 h, 4°C; washes with 300 mM NaCl, 0.1% Triton X-100; immunoblot. (In general: A western blot detects proteins with antibodies after separation by electrophoresis.)

No constants are given. Whether binding was seen depends on the method and setting. Binding seen in cells or lysates may run through a third protein.

With “dynein-light intermediate chain (DLIC) (human (endogenous in HEK293FT))”, the binding entry was “no binding”.
